Results are given in words; binding and its absence hold for the method and conditions named. For part of these data: In cells and extracts the contact can be indirect. Some binding calls cover weakened binding; strength is not graded here. For part of these data: Tags and fused reporters may be left off the sequences shown.
T1: FLAG-tagged full-length ULK2 (UniProt Q8IYT8)
T1 sequence: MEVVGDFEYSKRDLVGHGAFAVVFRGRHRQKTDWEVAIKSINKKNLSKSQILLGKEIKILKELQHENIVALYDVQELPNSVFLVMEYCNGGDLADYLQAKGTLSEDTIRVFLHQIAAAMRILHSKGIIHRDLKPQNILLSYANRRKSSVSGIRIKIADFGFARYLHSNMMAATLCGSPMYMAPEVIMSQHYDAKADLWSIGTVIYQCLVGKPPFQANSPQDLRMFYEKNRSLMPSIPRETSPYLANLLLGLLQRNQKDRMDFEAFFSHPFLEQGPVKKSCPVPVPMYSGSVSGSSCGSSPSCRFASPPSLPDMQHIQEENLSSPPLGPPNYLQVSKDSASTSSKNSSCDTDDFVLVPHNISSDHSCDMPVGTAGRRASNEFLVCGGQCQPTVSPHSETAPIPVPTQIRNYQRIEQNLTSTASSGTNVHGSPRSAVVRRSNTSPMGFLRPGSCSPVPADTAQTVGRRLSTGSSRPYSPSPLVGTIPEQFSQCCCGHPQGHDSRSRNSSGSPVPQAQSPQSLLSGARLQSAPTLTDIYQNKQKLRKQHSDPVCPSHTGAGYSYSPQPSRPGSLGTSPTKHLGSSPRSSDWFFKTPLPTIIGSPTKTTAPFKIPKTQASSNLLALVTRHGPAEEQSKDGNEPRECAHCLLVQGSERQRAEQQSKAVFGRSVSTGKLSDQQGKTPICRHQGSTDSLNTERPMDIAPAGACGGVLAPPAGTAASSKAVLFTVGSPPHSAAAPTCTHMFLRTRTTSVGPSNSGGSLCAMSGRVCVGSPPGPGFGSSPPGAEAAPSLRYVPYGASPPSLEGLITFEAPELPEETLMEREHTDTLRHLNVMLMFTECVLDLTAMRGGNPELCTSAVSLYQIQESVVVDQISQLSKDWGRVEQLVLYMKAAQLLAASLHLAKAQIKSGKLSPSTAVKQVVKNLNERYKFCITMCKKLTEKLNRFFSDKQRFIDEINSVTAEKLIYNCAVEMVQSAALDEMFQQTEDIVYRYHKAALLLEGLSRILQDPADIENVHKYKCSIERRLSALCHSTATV

By UniProt entry, the sequences of proteins in these tests, tags left out. Where a name states a change or a piece, a line headed by the entry shows the natural chain unless it says otherwise. Chains listed by the source or under a name are the forms on record and can include a tag or linker. Residues count along the entry.
HA-tagged CARMA2sh (HaCaT) (Q9BXL6, residues 1-740): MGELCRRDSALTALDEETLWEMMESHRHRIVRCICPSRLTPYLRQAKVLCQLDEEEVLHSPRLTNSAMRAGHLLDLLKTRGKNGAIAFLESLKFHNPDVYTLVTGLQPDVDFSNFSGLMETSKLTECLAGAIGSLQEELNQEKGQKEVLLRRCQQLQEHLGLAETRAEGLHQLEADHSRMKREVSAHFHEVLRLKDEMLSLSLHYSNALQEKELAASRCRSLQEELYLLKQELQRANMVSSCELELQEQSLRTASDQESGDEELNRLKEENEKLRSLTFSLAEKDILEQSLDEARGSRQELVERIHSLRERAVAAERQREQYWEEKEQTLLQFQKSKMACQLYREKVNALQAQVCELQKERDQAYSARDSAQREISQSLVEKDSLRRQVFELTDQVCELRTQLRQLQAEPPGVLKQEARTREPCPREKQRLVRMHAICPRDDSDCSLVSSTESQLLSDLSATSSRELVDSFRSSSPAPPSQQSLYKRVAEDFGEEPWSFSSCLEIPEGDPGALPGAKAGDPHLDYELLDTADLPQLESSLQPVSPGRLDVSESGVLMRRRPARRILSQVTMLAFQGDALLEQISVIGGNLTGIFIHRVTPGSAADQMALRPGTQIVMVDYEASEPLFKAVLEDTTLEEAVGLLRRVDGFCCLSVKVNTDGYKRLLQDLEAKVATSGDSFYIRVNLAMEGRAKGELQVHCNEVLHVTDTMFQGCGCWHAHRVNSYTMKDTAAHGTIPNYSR
CARMA2shE142G (Q9BXL6-2, form named): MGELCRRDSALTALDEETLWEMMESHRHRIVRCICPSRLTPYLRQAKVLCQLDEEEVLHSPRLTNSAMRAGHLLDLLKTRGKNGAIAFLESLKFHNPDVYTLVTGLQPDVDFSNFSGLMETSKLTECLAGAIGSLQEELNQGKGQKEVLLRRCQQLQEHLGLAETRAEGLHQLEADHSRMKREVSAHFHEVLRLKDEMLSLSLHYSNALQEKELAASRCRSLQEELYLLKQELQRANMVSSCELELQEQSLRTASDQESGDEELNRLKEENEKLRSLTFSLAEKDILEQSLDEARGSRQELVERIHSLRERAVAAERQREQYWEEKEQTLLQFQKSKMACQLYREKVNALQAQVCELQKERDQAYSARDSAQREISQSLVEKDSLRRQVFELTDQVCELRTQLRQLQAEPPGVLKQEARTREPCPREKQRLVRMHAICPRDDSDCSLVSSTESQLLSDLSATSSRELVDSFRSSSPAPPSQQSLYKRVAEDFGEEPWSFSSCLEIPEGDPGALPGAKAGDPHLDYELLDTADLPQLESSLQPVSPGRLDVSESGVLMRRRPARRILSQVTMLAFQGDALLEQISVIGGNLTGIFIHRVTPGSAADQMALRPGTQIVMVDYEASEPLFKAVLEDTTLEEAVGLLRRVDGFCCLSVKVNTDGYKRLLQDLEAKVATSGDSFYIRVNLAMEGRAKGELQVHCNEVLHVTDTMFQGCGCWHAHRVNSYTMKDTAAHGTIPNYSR
CARMA2shΔ458-500 (Q9BXL6-2, form named): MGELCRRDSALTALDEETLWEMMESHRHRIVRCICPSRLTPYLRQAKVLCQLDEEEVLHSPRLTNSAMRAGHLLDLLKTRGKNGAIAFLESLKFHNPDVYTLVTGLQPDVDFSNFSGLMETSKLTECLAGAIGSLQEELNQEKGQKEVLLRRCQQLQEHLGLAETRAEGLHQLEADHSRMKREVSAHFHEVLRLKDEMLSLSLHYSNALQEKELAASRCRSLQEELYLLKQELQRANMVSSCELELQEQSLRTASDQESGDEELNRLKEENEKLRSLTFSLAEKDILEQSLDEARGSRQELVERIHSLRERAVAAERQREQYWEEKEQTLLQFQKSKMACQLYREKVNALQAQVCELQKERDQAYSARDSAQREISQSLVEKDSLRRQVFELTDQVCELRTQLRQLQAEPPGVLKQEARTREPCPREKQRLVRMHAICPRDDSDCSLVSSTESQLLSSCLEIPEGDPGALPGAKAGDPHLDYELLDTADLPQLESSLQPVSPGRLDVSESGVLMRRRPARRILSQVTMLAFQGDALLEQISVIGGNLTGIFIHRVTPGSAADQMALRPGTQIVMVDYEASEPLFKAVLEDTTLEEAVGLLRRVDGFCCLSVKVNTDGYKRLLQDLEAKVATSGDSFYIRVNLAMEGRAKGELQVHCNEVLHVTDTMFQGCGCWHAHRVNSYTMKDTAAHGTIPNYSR
CARMA2shE138A (Q9BXL6-2, form named): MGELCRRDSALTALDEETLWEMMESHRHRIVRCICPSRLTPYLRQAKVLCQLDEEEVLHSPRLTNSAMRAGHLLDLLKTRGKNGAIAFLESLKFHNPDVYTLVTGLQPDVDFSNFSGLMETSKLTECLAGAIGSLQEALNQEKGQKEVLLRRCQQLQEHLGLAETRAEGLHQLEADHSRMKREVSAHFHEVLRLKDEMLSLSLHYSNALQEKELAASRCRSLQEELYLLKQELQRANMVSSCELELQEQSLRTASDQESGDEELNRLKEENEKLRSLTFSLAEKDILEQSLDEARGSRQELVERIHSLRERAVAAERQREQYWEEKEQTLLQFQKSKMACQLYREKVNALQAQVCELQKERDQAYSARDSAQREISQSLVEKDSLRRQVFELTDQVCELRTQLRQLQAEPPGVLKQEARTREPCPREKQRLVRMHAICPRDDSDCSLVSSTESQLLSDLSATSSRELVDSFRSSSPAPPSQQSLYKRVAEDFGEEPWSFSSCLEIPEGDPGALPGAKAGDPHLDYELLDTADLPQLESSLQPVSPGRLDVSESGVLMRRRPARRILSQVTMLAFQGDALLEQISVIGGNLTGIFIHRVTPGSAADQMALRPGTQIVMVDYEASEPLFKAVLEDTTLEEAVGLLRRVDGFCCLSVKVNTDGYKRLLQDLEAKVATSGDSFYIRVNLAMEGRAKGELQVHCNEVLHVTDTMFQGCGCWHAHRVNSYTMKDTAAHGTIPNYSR


Assays:
[1] = target: T1, FLAG-tagged full-length ULK2; test: co-IP; transfection experiments with CARMA2sh mutants and ULK2 (Supplementary Figure 3); cells, tags and precipitating antibody not given
[2] = target: T1, FLAG-tagged full-length ULK2; test: co-IP; HEK293T cotransfected with HA-CARMA2sh and FLAG-ULK2; lysates (150 mM NaCl, 50 mM Tris pH 7.2, 1% NP40, 2 mM EDTA) immunoprecipitated with anti-FLAG, blotted for HA-CARMA2sh; anti-myc as control antibody
[3] = target: GAL4BD-CARMA2sh fusion protein (human) (UniProt Q9BXL6); test: two-hybrid; Matchmaker system, yeast AH109; bait fused to the GAL4 DNA-binding domain, ULK2 805-1036 fused to the GAL4 activating domain; growth on selective media, 10 independent transformants
[4] = target: HA-tagged CARMA2sh (HaCaT) (human) (UniProt Q9BXL6); test: co-IP; HaCaT transfected with HA-CARMA2sh; lysates immunoprecipitated with anti-HA, blotted for endogenous ULK2; anti-myc as control antibody

Row | Molecule | binding [1] | other results
1 | CARMA2shΔ458-500 (from UniProt Q9BXL6-2 1-740) | binds | –
2 | HA-tagged CARMA2sh (HEK293T) (from UniProt Q9BXL6-2 1-740) | – | binding [2]: binds
3 | ULK2 805-1036 library clone fused to the GAL4 activating domain (domain or fragment, UniProt Q8IYT8 805-1036) LITFEAPELPEETLMEREHTDTLRHLNVMLMFTECVLDLTAMRGGNPELCTSAVSLYQIQESVVVDQISQLSKDWGRVEQLVLYMKAAQLLAASLHLAKAQIKSGKLSPSTAVKQVVKNLNERYKFCITMCKKLTEKLNRFFSDKQRFIDEINSVTAEKLIYNCAVEMVQSAALDEMFQQTEDIVYRYHKAALLLEGLSRILQDPADIENVHKYKCSIERRLSALCHSTATV | – | binding [3]: binds
4 | endogenous ULK2 (HaCaT) (enzyme, UniProt Q8IYT8 1-1036) MEVVGDFEYSKRDLVGHGAFAVVFRGRHRQKTDWEVAIKSINKKNLSKSQILLGKEIKILKELQHENIVALYDVQELPNSVFLVMEYCNGGDLADYLQAKGTLSEDTIRVFLHQIAAAMRILHSKGIIHRDLKPQNILLSYANRRKSSVSGIRIKIADFGFARYLHSNMMAATLCGSPMYMAPEVIMSQHYDAKADLWSIGTVIYQCLVGKPPFQANSPQDLRMFYEKNRSLMPSIPRETSPYLANLLLGLLQRNQKDRMDFEAFFSHPFLEQGPVKKSCPVPVPMYSGSVSGSSCGSSPSCRFASPPSLPDMQHIQEENLSSPPLGPPNYLQVSKDSASTSSKNSSCDTDDFVLVPHNISSDHSCDMPVGTAGRRASNEFLVCGGQCQPTVSPHSETAPIPVPTQIRNYQRIEQNLTSTASSGTNVHGSPRSAVVRRSNTSPMGFLRPGSCSPVPADTAQTVGRRLSTGSSRPYSPSPLVGTIPEQFSQCCCGHPQGHDSRSRNSSGSPVPQAQSPQSLLSGARLQSAPTLTDIYQNKQKLRKQHSDPVCPSHTGAGYSYSPQPSRPGSLGTSPTKHLGSSPRSSDWFFKTPLPTIIGSPTKTTAPFKIPKTQASSNLLALVTRHGPAEEQSKDGNEPRECAHCLLVQGSERQRAEQQSKAVFGRSVSTGKLSDQQGKTPICRHQGSTDSLNTERPMDIAPAGACGGVLAPPAGTAASSKAVLFTVGSPPHSAAAPTCTHMFLRTRTTSVGPSNSGGSLCAMSGRVCVGSPPGPGFGSSPPGAEAAPSLRYVPYGASPPSLEGLITFEAPELPEETLMEREHTDTLRHLNVMLMFTECVLDLTAMRGGNPELCTSAVSLYQIQESVVVDQISQLSKDWGRVEQLVLYMKAAQLLAASLHLAKAQIKSGKLSPSTAVKQVVKNLNERYKFCITMCKKLTEKLNRFFSDKQRFIDEINSVTAEKLIYNCAVEMVQSAALDEMFQQTEDIVYRYHKAALLLEGLSRILQDPADIENVHKYKCSIERRLSALCHSTATV | – | binding [4]: binds

The next lines start with results.

Row | binding [1] | Molecule | other results
5 | binds | CARMA2shE142G (from UniProt Q9BXL6-2 1-740) | –
6 | binds | CARMA2shE138A (from UniProt Q9BXL6-2 1-740) | –

From paper PMC5386493
